# Experimental data taken from PubChem BioAssay AID1794845 (National Center for Advancing Translational Sciences (NCATS), 2023).
# By UniProt entry, the sequences of proteins in these tests, tags left out. Where a name states a change or a piece, a line headed by the entry shows the natural chain unless it says otherwise.
# UniProt C7C422: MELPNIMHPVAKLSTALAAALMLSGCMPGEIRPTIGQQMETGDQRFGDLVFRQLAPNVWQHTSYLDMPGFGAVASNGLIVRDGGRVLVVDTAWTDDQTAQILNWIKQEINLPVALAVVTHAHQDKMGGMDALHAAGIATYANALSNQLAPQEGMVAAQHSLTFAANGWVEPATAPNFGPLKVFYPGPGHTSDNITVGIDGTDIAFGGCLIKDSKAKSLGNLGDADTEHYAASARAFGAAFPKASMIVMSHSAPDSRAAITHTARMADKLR
# Fewer than 10 of roughly 6,900 compounds were called active. The call rests on the fitted dose curve; in most records, active means well fitted curve in the direction sought with a large enough effect; inconclusive means small, poorly fitted or top-dose-only effect, or another doubt; inactive means no such curve, though single readings can be large or run the other way. This is one part of the list.
# Target: Metallo-beta-lactamase type 2 (Klebsiella pneumoniae) (UniProt C7C422)
# Experiment: qHTS to identify inhibitors of the New Delhi Metallo-beta-lactamase (NDM): primary screen against the NCATS Gemini Collection; further: % of control where 0% means no effect
# Conditions: NDM-1 enzyme, meropenem hydrolysis, absorbance 300 nm; at 38.4 µM (top of the series) unless noted
# In short: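 Meropenem hydrolysis (50 uM final) by 2 nM NDM-1 read as 300 nm absorbance after 30 min, following >30 min compound–enzyme preincubation in HEPES pH 7.0 with 1 uM ZnSO4 and 0.01% Tween20.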
row,SMILES,activity % (negative = inhibition)
1,O=C(CSCC1CC1)N1CCC2(CCC(=O)N(CCCn3ccnc3)C2)CC1,inactive: 7.81%
2,Cc1cc(F)ccc1C(=O)N1CCn2nc(Cc3ccccc3)cc2C1,inactive: -2.54%
3,Cc1ccccc1C(=O)NCc1cccnc1Oc1cccc(C(F)(F)F)c1,inactive: -4.3%
4,Cc1nn(-c2ccccn2)c(C)c1[C@@H]1C=C[C@@H](NC(=O)NC(C)C)C1,inactive: -0.999% [at 57.5 µM]
5,CC(C)NC(=O)c1ccnc(-c2ccccc2S(=O)(=O)NC(C)(C)C)c1,inactive: -0.0419%
6,O=C1NCCOCCCN(C(=O)C2(c3ccccc3)CC2)[C@H]2CCCC[C@@H]12,inactive: 28.8%
7,OC[C@@H]1CN(CC2CCCCC2)C[C@H]1c1nc(C2CC2)no1,inactive: 10.8%
8,CCS(=O)(=O)N1CCC(N2C(=O)C(OCC3CC3)C23CCCCC3)CC1 (stereo not drawn),inactive: -3.85%
9,CC(C)C1=NOC2(CCN([S+](=O)([O-])c3cccc(C(F)(F)F)c3)C2)C1 (stereo not drawn),inactive: -0.392%
10,COC[C@@H]1CN(S(=O)(=O)c2c(C)noc2C)C[C@H]1c1ccncc1,inactive: -0.785%
11,Cc1ccc(C(N)=O)cc1-c1cc(NCc2cccnc2)nc2[nH]ccc12,inactive: 1.47%
12,Cn1c(=O)c2c(ncn2CC(=O)N2CCC(Cc3nc(C4CCOCC4)no3)CC2)n(C)c1=O,inactive: 6.69%
13,COc1ccc(C[C@@H]2NC(=O)[C@@H]3C[C@@H](NC(=O)Nc4cccc(SC)c4)CCN3C2=O)cc1,inactive: 4.23%
14,Cc1nn(CC(=O)NC(C)Cc2cnccn2)c(=O)n1CCc1ccccc1 (stereo not drawn),inactive: 0.454%
15,O=S(=O)(c1ccccc1)c1nnn2c1nc(N1CCCCC1)c1ccccc12,inactive: 1.98%
16,COCC(=O)NC[C@H]1CCN(Cc2ccc(C)s2)C[C@H]1N(C)C,inactive: -11.1%
17,COCCS(=O)(=O)c1ncc(CN(C)Cc2ccsc2)n1Cc1ccccc1,inactive: 0.926%
18,Cc1ccccc1CN1CCOc2cc([S+](=O)([O-])Nc3cccnc3)ccc2C1,inactive: 4.66% [at 57.5 µM]
19,c1ccc(-c2ccc(CN3CCOC[C@H](Oc4cnccn4)C3)cc2)cc1,inactive: 13.5% [at 57.5 µM]
20,Cn1ncc2c(-c3ccc([S+](C)(=O)[O-])cc3)cc(C(=O)N3CCCC3)nc21,inactive: 3.84%
21,COc1cccc(S(=O)(=O)N2CC3(Cc4ccccc4C(=O)N3)C2)c1,inactive: -0.576%
22,CN1C(=O)CC[C@]2(C(=O)NCc3cc(F)cc(F)c3)CCCC[C@@H]12,inactive: -4.96%
23,Cc1noc2c(NCc3ccccc3)cc(-c3cccnc3)nc12,inactive: 6.07% [at 57.5 µM]
24,O=C1CC(C(=O)O)C2(CCN(c3cc(C4CC4)ncn3)CC2)N1 (stereo not drawn),inactive: 10.9%
25,COCCN1CCCC(c2[nH]ccc2C(=O)NCCc2nc3ccccc3[nH]2)C1 (stereo not drawn),inactive: 0.729%
26,O=C(c1ccncc1)N1CCC2(CN[S+](=O)([O-])c3cnccc3O2)C1 (stereo not drawn),inactive: 1.58%
27,COC(=O)[C@H]1CN(C(=O)NC(C)C)CCN1C(=O)C1CCCCC1,inactive: 4.98% [at 57.5 µM]

# Individual results from above.
# Value for `Cc1nn(-c2ccccn2)c(C)c1[C@@H]1C=C[C@@H](NC(=O)NC(C)C)C1` under activity % (negative = inhibition): inactive: -0.999% [at 57.5 µM]
# Value for `Cc1ccc(C(N)=O)cc1-c1cc(NCc2cccnc2)nc2[nH]ccc12` under activity % (negative = inhibition): inactive: 1.47%
# Value for `Cc1ccccc1CN1CCOc2cc([S+](=O)([O-])Nc3cccnc3)ccc2C1` under activity % (negative = inhibition): inactive: 4.66% [at 57.5 µM]

# (listing goes on)

row,SMILES,activity % (negative = inhibition)
1,O=C(c1cc(F)ccc1Cl)N1CCCC1c1nncn1Cc1ccncc1 (stereo not drawn),inactive: 3.12%
2,Cc1ncc2c(c1CNC(=O)c1ccc(OC(F)F)cc1)CCNC2,inactive: 6.43%
3,CN(Cc1ccc(-c2ccccc2)cc1)CC1CCCCC1,inactive: 4.21% [at 57.5 µM]
4,Cc1cc(OC2CN(C(=O)c3ccccn3)C2)ccc1F,inactive: 19.7% [at 57.5 µM]
5,CCc1nnc([C@@H]2CC(F)(F)CN2C(=O)c2occc2C)o1,inactive: 4.32%
6,COc1cccc(CN2C[C@@H](CO)[C@H](NC(=O)C3CCC3)C2)c1,inactive: -0.995%
7,CN(Cc1nc(-c2ccccc2)no1)C(=O)c1cccc(C2CCNC2)c1 (stereo not drawn),inactive: -0.217%
8,CC(=O)Nc1ccc(CN2CC[C@@H](c3ccc4c(c3)OCO4)[C@H](O)C2)cc1,inactive: -0.153%
9,CCN(C1CCOCC1)C1CN(C(=O)c2ccnn2C)C1,inactive: 16%
10,O=C(Cn1c(=O)oc2ccccc21)N1CC2CC(C1)[C@H]1CCCC(=O)N1C2 (stereo partly drawn),inactive: 5.87%
11,COc1cccc(CN2CCC(C(=O)N3CCCCCCNC(=O)CC3)CC2)c1,inactive: -3.36%
12,O=C1OCC2(CCN(Cc3c[nH]c4ccccc34)C2)N1Cc1ccccc1 (stereo not drawn),inactive: 50.4% [at 57.5 µM]
13,COCCNC(=O)c1cc(-c2ccc(Cl)nc2)nc2c1cnn2C,inactive: 28.9% [at 57.5 µM]
14,Cc1nn(-c2ccccc2)c2c1C(C(C)C)N(C1CCCN(C(=O)c3ccccc3F)C1)C2=O (stereo not drawn),inactive: -6.3%
15,CCOCCn1c(=O)n(Cc2cc(OC)ccn2)c2cc(C(=O)O)cnc21,inactive: 15.3%
16,COc1ccc(CN2C(=O)COC[C@H]2C(=O)N2CCc3ccccc3C2)c(OC)c1,inactive: 13.6%
17,O=C1COCC2(CN1)CN(C(=O)c1ccc(Cl)cc1)C2,inactive: 0.381% [at 77.1 µM]
18,CN(C)c1cccc(Oc2nnnn2[C@H]2CO[C@H]3[C@@H]2OC[C@@H]3NCC2CC2)c1,inactive: 1.75% [at 57.5 µM]
19,COc1ccc([C@@H]2CN(C(=O)CCc3c(C)noc3C)C[C@H]2N(C)C)cc1,inactive: -1.02%
20,CN(C)c1nc(NC2CC(c3cc(=O)[nH]c(C4CC4)n3)C2)ncc1F (stereo not drawn),inactive: -3.83%
21,CN(C)C(=O)N1CCN(c2ccc(Cl)nn2)C(=O)C1,inactive: 7.94% [at 57.5 µM]
22,COc1ccc(-c2[nH]ncc2CN2CC[C@H]3CC[C@@H](C2)N3)cc1,inactive: 14.4%
23,Cc1noc(C)c1[S+](=O)([O-])N1CCCC1C(=O)N1CCC(c2nc3ccncc3[nH]2)CC1 (stereo not drawn),inactive: 22.3%
24,Cc1cccc(S(=O)(=O)N2[C@@H]3CC[C@H]2CC(NC(=O)c2ccncc2)C3)c1 (stereo partly drawn),inactive: 0.447%
25,CCN1CCN(C(=O)c2ccc3nc(-c4cccnc4)oc3c2)CC1,inactive: 16.5%
26,COc1ccc(F)cc1-c1cccc(C(=O)NCCNC(=O)c2ccccc2Cl)c1,inactive: 6.94%
